Assay results reported in the supplement of paper PMC10849652.
This is one part of the list.

By UniProt entry, the sequences of proteins in these tests, tags left out. Where a name states a change or a piece, a line headed by the entry shows the natural chain unless it says otherwise.
UniProt Q96QB1: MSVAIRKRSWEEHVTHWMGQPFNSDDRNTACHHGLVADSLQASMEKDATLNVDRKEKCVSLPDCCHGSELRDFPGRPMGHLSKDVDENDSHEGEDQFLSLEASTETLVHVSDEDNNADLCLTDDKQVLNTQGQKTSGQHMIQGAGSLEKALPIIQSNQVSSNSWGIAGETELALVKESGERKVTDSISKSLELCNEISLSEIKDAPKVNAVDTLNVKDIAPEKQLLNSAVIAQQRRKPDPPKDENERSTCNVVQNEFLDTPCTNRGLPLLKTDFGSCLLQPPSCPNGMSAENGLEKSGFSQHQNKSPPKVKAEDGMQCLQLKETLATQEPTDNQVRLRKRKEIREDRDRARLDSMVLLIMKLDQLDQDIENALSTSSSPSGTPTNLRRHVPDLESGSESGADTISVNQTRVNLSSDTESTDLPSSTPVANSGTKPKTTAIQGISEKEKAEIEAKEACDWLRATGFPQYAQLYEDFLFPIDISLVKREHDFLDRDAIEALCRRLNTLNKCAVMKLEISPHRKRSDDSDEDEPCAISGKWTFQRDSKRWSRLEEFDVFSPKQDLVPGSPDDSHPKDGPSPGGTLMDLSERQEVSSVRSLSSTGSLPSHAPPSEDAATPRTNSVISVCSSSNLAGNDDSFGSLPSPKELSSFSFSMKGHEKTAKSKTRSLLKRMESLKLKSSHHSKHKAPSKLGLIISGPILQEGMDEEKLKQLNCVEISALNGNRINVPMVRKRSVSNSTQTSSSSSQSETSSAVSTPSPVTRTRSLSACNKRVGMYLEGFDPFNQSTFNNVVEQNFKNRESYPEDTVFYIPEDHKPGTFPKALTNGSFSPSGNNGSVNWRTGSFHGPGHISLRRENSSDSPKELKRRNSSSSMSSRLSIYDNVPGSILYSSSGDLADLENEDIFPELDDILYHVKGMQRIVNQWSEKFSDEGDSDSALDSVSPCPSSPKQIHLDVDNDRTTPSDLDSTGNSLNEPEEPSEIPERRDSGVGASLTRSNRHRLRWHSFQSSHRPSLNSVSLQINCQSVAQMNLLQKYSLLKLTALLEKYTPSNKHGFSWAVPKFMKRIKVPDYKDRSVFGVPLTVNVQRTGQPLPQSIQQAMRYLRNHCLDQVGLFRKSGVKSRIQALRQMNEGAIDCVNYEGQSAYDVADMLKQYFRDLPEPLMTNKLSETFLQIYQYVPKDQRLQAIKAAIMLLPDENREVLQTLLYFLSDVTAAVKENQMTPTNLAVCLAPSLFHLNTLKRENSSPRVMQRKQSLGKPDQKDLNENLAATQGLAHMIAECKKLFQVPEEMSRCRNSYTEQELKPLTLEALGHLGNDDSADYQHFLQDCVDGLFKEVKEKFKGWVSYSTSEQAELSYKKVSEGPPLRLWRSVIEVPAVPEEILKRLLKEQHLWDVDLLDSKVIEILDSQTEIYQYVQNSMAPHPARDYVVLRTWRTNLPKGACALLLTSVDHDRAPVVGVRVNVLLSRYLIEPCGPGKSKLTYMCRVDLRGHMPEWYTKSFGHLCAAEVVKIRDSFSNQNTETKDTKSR
UniProt Q6Y2X3: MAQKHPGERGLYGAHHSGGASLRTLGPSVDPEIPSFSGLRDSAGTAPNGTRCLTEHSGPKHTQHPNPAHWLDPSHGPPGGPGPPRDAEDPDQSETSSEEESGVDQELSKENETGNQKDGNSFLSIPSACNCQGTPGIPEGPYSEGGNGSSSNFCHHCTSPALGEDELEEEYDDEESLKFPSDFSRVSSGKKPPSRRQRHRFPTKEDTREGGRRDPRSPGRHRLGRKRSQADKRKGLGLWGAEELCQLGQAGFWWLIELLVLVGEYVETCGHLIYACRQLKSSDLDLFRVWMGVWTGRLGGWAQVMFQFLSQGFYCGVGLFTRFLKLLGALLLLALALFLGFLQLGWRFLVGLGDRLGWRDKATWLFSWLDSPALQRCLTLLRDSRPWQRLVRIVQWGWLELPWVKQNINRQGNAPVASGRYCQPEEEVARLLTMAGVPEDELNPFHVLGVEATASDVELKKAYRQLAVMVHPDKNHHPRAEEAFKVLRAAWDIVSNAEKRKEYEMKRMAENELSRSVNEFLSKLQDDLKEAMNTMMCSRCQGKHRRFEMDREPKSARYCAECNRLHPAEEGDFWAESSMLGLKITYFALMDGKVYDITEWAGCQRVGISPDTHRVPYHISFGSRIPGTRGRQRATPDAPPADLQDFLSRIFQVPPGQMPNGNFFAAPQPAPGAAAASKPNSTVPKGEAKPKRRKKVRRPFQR
UniProt Q07687: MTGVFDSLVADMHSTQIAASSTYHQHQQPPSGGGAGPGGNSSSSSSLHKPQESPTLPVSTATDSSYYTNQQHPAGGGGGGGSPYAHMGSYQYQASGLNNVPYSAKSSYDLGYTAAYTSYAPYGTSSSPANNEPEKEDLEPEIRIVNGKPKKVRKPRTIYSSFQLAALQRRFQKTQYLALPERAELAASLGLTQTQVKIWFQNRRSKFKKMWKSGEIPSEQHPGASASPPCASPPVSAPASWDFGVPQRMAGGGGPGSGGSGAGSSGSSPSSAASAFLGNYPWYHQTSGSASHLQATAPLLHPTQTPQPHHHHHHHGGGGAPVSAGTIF
UniProt Q6UX07: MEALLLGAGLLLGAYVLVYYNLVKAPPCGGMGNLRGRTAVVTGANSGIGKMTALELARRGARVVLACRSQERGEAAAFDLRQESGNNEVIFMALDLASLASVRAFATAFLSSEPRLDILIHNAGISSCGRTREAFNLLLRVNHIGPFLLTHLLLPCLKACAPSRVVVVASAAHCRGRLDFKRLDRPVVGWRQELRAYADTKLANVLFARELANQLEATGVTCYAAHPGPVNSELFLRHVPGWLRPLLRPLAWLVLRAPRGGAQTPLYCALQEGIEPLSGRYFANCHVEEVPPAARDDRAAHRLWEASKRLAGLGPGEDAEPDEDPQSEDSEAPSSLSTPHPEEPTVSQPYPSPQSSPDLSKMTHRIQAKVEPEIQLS
UniProt Q12959, whole entry, looked up: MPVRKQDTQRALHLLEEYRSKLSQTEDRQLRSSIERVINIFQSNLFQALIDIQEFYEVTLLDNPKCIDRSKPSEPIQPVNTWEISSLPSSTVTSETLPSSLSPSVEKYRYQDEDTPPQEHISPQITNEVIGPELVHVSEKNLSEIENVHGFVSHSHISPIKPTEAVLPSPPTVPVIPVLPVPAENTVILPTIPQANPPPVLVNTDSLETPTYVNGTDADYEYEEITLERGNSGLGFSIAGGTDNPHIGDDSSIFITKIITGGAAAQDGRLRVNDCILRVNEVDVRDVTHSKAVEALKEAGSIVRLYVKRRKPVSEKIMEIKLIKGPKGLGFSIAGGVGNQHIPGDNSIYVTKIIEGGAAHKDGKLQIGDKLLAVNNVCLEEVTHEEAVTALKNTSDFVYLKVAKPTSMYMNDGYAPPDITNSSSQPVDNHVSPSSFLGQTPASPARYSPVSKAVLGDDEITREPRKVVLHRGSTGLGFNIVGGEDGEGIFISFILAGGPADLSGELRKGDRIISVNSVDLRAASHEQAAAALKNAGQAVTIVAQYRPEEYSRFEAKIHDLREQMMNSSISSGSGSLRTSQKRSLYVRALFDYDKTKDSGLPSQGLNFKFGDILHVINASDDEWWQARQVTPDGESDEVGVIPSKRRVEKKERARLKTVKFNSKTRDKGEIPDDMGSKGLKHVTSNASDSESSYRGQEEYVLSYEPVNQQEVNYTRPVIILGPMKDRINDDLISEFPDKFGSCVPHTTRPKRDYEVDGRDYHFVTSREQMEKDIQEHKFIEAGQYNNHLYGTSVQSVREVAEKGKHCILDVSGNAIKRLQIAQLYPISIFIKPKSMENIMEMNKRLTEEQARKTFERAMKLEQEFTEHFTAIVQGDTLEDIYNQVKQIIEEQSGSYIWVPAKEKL
UniProt Q9BY27: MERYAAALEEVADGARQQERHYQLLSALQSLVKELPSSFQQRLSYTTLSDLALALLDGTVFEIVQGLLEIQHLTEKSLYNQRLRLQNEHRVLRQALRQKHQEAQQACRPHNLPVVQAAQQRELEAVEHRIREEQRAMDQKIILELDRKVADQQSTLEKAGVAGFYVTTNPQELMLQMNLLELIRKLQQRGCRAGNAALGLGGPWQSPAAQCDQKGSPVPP
UniProt Q9UBS3: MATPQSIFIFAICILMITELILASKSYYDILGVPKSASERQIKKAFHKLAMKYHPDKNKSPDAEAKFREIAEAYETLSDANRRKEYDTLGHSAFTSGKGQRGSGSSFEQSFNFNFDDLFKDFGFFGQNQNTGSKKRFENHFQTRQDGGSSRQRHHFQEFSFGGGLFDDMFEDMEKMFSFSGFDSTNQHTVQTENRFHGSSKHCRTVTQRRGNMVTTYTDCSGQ
UniProt Q8N5I4: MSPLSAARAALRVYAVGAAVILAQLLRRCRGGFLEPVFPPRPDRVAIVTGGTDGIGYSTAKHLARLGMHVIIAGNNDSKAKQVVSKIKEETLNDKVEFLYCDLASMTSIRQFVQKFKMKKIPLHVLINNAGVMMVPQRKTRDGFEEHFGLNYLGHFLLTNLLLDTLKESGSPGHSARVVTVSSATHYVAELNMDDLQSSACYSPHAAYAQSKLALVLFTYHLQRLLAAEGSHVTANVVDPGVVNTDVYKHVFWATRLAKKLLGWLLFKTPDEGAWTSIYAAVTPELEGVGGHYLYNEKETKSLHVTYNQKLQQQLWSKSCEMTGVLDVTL
UniProt Q96EY1: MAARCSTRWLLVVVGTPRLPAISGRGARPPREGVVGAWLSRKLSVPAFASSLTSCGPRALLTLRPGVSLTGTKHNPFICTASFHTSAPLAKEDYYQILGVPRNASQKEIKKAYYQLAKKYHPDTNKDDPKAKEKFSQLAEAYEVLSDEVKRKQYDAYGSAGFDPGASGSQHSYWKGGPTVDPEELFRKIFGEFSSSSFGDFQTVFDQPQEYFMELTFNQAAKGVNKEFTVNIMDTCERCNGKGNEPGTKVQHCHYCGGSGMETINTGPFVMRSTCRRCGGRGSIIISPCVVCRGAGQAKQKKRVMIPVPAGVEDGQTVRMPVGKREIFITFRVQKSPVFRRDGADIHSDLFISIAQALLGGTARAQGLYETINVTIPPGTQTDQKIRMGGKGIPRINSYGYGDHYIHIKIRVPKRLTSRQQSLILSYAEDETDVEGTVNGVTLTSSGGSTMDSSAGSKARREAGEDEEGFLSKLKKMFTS
UniProt P49184: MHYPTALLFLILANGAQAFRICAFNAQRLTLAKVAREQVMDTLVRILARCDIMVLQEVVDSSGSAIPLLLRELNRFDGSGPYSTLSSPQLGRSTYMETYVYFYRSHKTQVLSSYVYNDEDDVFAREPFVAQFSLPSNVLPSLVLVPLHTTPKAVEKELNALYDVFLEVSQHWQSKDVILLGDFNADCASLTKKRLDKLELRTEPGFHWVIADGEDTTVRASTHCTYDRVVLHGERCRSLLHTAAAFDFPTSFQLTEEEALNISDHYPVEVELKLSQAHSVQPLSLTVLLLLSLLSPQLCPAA

The targets below were run with CN1CCc2c(c3ccccc3n2Cc2ccc(C(=O)NO)cc2)C1 [Tubastatin A] (assay: log2 fold change, soluble protein after heating vs DMSO (PISA); higher = thermal stabilisation; K562 lysate, 10 uM; active = over 0.2 and 3.5 SD of the protein, either way, in both replicates (recomputed)).
Summary of the method: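 Thermal stability, expressed as log-two fold change relative to solvent controls, is given from duplicates. Crude K562 extract in PBS pH 7.4 with 1 mM MgCl2, at 1 mg/mL protein, was treated with 10 μM compound for 30 min and heated in aliquots for 3 min across 48°C-58°C. After pooling, adjustment to 0.5% NP-40 at 4°C and centrifugation at 21,000xg for 90 min, supernatant protein was measured by TMTpro 16plex LC-MS/MS with channel sums equalised.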

log2 fold change, inactive:
DNHD1 (UniProt Q96M86) 0.181
DNPEP (UniProt B9ZVU2) 0.053
DLC1 (UniProt Q96QB1) -0.082
DNAJC14 (UniProt Q6Y2X3) 0.014
DLX2 (UniProt Q07687) -0.294
DHRS13 (UniProt Q6UX07) -0.087
DLG1 isoform 3 (UniProt Q12959) -0.015
DGCR6L (UniProt Q9BY27) -0.089
DNAJB9 (UniProt Q9UBS3) -0.113
DNMT3B (UniProt Q9UBC3) -0.299
DHRSX (UniProt Q8N5I4) -0.062
DNAJA3 isoform 2 (UniProt Q96EY1) -0.065
DNASE1L1 (UniProt P49184) 0.06
DNMT1 (UniProt P26358) -0.03

Quoted at random: 2 entries already listed
log2 fold change, inactive:
DNMT3B (UniProt Q9UBC3) -0.299
DLX2 (UniProt Q07687) -0.294
